We go through one molecule from PMC7076015.

Amino acid sequences for entries named in this document (tags omitted).
UniProt A9QM74: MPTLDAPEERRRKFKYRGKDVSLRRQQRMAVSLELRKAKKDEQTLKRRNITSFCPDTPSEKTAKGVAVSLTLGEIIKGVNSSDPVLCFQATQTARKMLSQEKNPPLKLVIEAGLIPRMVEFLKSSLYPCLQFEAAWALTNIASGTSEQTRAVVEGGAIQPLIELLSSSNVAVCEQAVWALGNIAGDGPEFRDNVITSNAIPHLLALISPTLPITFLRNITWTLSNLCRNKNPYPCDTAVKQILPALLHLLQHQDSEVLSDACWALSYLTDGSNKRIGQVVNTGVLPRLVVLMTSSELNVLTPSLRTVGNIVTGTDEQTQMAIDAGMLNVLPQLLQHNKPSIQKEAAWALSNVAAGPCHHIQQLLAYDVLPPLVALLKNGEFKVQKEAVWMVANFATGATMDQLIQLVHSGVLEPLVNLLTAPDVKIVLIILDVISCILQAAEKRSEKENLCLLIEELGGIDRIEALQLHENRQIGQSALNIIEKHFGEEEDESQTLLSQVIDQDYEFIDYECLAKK

No constants are given. Whether binding was seen depends on the method and setting. In cells and extracts the contact can be indirect. Here binding means that the protein was enriched with, or labelled near, the bait; the list need not be complete.

The experiment concerns the target MBP-KPNA7 (wild type) (human) (UniProt A9QM74). Nature of the experiment: affinity purification with mass spectrometry; 40 μg MBP-KPNA7 (heavy) or MBP (light) on magnetic amylose resin, SILAC nuclear lysates of iPSC-derived neurons, with 0.5 μM his-Importin β; 3 hours at 4 °C; LC-MS/MS; only the target purified.

B1: hnRNP R (endogenous, iPSC-derived neurons) (protein, UniProt O43390 1-633)
chain: MANQVNGNAVQLKEEEEPMDTSSVTHTEHYKTLIEAGLPQKVAERLDEIFQTGLVAYVDLDERAIDALREFNEEGALSVLQQFKESDLSHVQNKSAFLCGVMKTYRQREKQGSKVQESTKGPDEAKIKALLERTGYTLDVTTGQRKYGGPPPDSVYSGVQPGIGTEVFVGKIPRDLYEDELVPLFEKAGPIWDLRLMMDPLSGQNRGYAFITFCGKEAAQEAVKLCDSYEIRPGKHLGVCISVANNRLFVGSIPKNKTKENILEEFSKVTEGLVDVILYHQPDDKKKNRGFCFLEYEDHKSAAQARRRLMSGKVKVWGNVVTVEWADPVEEPDPEVMAKVKVLFVRNLATTVTEEILEKSFSEFGKLERVKKLKDYAFVHFEDRGAAVKAMDEMNGKEIEGEEIEIVLAKPPDKKRKERQAARQASRSTAYEDYYYHPPPRMPPPIRGRGRGGGRGGYGYPPDYYGYEDYYDDYYGYDYHDYRGGYEDPYYGYDDGYAVRGRGGGRGGRGAPPPPRGRGAPPPRGRAGYSQRGAPLGPPRGSRGGRGGPAQQQRGRGSRGSRGNRGGNVGGKRKADGYNQPDSKRRQTNNQQNWGSQPIAQQPLQQGGDYSGNYGYNNDNQEFYQDTYGQQWK
As to B1, the binding entry is “binds”.
